According to patent US11202837B2 (Antikor Biopharma Limited, priority 2014, dated 2021):

Test: general procedure: solution-phase peptide synthesis; HATU/DIPEA; TSTU/DIPEA for NHS esters; diethylcyanophosphonate/DIPEA
Conditions: late stage modification step

cemadotin C5
step yield: (88%)
